The values below come from paper PMC6336344.

Assay [1] has as its target BSK3-YFP^N (Arabidopsis thaliana) (UniProt Q8W4L3). Briefly: split reporter; BiFC with halves of YFP (pSPYNE-35S, pSPYCE-35S), transient co-expression in Nicotiana benthamiana leaves, confocal microscopy of leaf epidermal cells.
The target in assay [2] is BSK3-HA (BRASSINOSTEROID-… KINASE 3, HA-tagged, expressed from BSK3pro:BSK3-HA in Arabidopsis) (Arabidopsis thaliana) (UniProt Q8W4L3). Briefly: co-IP; transgenic Arabidopsis co-expressing BSK3-HA and a GFP/EYFP fusion; 300-870 μg microsomal proteins from 7 or 8-day-old light-grown seedlings; IP with anti-HA antibody and protein G agarose, blot with anti-GFP; also done after 1 μM BL for 30 minutes (BSK3-HA/BRI1-GFP reduced, the others not affected).

Results are given in words; binding and its absence hold for the method and conditions named. In cells and extracts the contact can be indirect. Tags and fused reporters may be left off the sequences shown.

B1: TMK1-YFP^C (plasma membrane-localized receptor kinase TMK1) (receptor, UniProt P43298 24-942)
chain: DSDGDLSAMLSLKKSLNPPSSFGWSDPDPCKWTHIVCTGTKRVTRIQIGHSGLQGTLSPDLRNLSELERLELQWNNISGPVPSLSGLASLQVLMLSNNNFDSIPSDVFQGLTSLQSVEIDNNPFKSWEIPESLRNASALQNFSANSANVSGSLPGFLGPDEFPGLSILHLAFNNLEGELPMSLAGSQVQSLWLNGQKLTGDITVLQNMTGLKEVWLHSNKFSGPLPDFSGLKELESLSLRDNSFTGPVPASLLSLESLKVVNLTNNHLQGPVPVFKSSVSVDLDKDSNSFCLSSPGECDPRVKSLLLIASSFDYPPRLAESWKGNDPCTNWIGIACSNGNITVISLEKMELTGTISPEFGAIKSLQRIILGINNLTGMIPQELTTLPNLKTLDVSSNKLFGKVPGFRSNVVVNTNGNPDIGKDKSSLSSPGSSSPSGGSGSGINGDKDRRGMKSSTFIGIIVGSVLGGLLSIFLIGLLVFCWYKKRQKRFSGSESSNAVVVHPRHSGSDNESVKITVAGSSVSVGGISDTYTLPGTSEVGDNIQMVEAGNMLISIQVLRSVTNNFSSDNILGSGGFGVVYKGELHDGTKIAVKRMENGVIAGKGFAEFKSEIAVLTKVRHRHLVTLLGYCLDGNEKLLVYEYMPQGTLSRHLFEWSEEGLKPLLWKQRLTLALDVARGVEYLHGLAHQSFIHRDLKPSNILLGDDMRAKVADFGLVRLAPEGKGSIETRIAGTFGYLAPEYAVTGRVTTKVDVYSFGVILMELITGRKSLDESQPEESIHLVSWFKRMYINKEASFKKAIDTTIDLDEETLASVHTVAELAGHCCAREPYQRPDMGHAVNILSSLVELWKPSDQNPEDIYGIDLDMSLPQALKKWQAYEGRSDLESSTSSLLPSLDNTQMSIPTRPYGFAESFTSVDGR
For the molecule B1, in assay [1], the binding result is given as “no binding”.

B2: CDG1-EYFP (CONSTITUTIVE … GROWTH 1 kinase, EYFP fusion) (enzyme, UniProt Q9LSE1 1-432)
chain: MVSCLCFRPSRKTKLKDKSHKRSIRNQTSSSSAQPAGTAKEVDSSSSQTVVQDSSRYRCQIFSYRELAIATNSFRNESLIGRGGFGTVYKGRLSTGQNIAVKMLDQSGIQGDKEFLVEVLMLSLLHHRNLVHLFGYCAEGDQRLVVYEYMPLGSVEDHLYDLSEGQEALDWKTRMKIALGAAKGLAFLHNEAQPPVIYRDLKTSNILLDHDYKPKLSDFGLAKFGPSDDMSHVSTRVMGTHGYCAPEYANTGKLTLKSDIYSFGVVLLELISGRKALMPSSECVGNQSRYLVHWARPLFLNGRIRQIVDPRLARKGGFSNILLYRGIEVAFLCLAEEANARPSISQVVECLKYIIDHTIRKERRTRRRLLGGNKDGAGTSRSPDETMMRMLEEEEEYVTSEEAIERRRVIVDDARTWAGMNRRGATPPTPTP
For the molecule B2, the binding result in assay [2] was “no binding”.
